Test results: US20210206856A1
Residue numbers refer to the chain shown, from its start. No constants are given. Whether binding was seen depends on the method and setting. Binding can be weak; no strength is given.

B1: MAdCAM Antibody Table 2 Clone 54 (antibody, human IgG1, V domains shown)
VH: QVQLVQSGAEVKKPGSSVKVSCKASGGTLSRYGVSWVRQAPGQGLEWMGGIIPIFGTTNYAQKFQGRVTITADESTSTAYMELSSLRSEDTAVYYCARDRVYYDSSGYPTWYFDLWGRGTLVTVSS
VL: EIVMTQSPATLSVSPGERATLSCRASQSVSSSYLAWYQQKPGQAPRLLIYGASTRATGIPARFSGSGSGTEFTLTISSLQSEDFAVYYCQQYGSSPITFGQGTKVEIK
B2: MAdCAM Antibody Table 2 Clone 66 (antibody, human IgG1, V domains shown)
VH: QVQLVQSGAEVKKPGASVKVSCKASGYTFTGHYMHWVRQAPGQGLEWMGIINPSGGSTSYAQKFQGRVTMTRDTSTSTVYMELSSLRSEDTAVYYCARDGAWFGEEYYYGMDVWGQGTTVTVSS
VL: DIQMTQSPSSLSASVGDRVTITCRASQGISNWLAWYQQKPGKAPKLLIYDASNLETGVPSRFSGSGSGTDFTLTISSLQPEDFATYYCQQYYSFPLYTFGQGTKVEIK
B3: MAdCAM Antibody Table 2 Clone 34 (antibody, human IgG1, V domains shown)
VH: QVQLVQSGAEVKKPGASVKVSCKASGYTFTGYYIHWVRQAPGQGLEWMGWMNPNSGNTGYAQKFQGRVTMTRDTSTSTVYMELSSLRSEDTAVYYCARDPGFLGYCSGGSCYDGWFDPWGQGTLVTVSS
VL: DIQMTQSPSSLSASVGDRVTITCRASQSISSYLHWYQQKPGKAPKLLIYAASSLQSGVPSRFSGSGSGTDFTLTISSLQPEDFATYYCQQSYTAPYTFGQGTKLEIK
B4: MAdCAM Antibody Table 2 Clone 56 (antibody, human IgG1, V domains shown)
VH: EVQLVESGGGLVKPGGSLRLSCAASGFTFSSYWMSWVRQAPGKGLEWVSAIGTGGGTYYAAPVKGRFTISRDDSKNTLYLQMNSLKTEDTAVYYCAREWLVPYYGMDVWGQGTTVTVSS
VL: B3 VL with S31R, Y32W, H34A, A50G, S53N, T93S, A94T, Y96W, L104V
B5: MAdCAM Antibody Table 2 Clone 69 (antibody, human IgG1, V domains shown)
VH: QVQLVQSGAEVKKPGASVKVSCKASGYTFTSYYMHWVRQAPGQGLEWMGIIDPSGGSTSYAQKFQGRVTMTRDTSTSTVYMELSSLRSEDTAVYYCAREEWSSGGVGYFDYWGQGTLVTVSS
VL: B3 VL with S28G, H34A, A51T, S56T, S91T, T93S, A94I, Y96I, K103R
B6: MAdCAM Antibody Table 2 Clone 43 (antibody, human IgG1, V domains shown)
VH: QVQLVQSGAEVKKPGASVKVSCKASGYTFTSYGISWVRQAPGQGLEWMGWMHPKSGDTGLTQKFQGRVTMTRDTSTSTVYMELSSLRSEDTAVYYCARDTPYYYYGMDVWGQGTTVTVSS
VL: B3 VL with Y32W, H34A, T93S, A94V, Y96I, L104V
B7: MAdCAM Antibody Table 2 Clone 39 (antibody, human IgG1, V domains shown)
VH: QVQLVQSGAEVKKPGASVKVSCKASGYTFTSYYMHWVRQAPGQGLEWMAWMNPNSGNTGYAQKFQGRVTMTRDTSTSTVYMELSSLRSEDTAVYYCARDYDFWSGSLGYWGQGTLVTVSS
VL: B3 VL with S28G, S31N, H34A, T93S, A94T, Y96W, L104V
B8: MAdCAM Antibody Table 1 Clone 3 (scFv)
scFv: QVQLVQSGAEVKKPGASVKVSCKASGYPFIGQYLHWVRQAPGQGLEWMGIINPSGGSTSYAQKFQGRVTMTRDTSTSTVYMELSSLRSEDTAVYYCAREGRLSYGMDAWGQGTLVTVSSGGGGSGGGGSGGGGSGGGGSDIQMTQSPSSLSASVGDRVTITCRASQSISSYLAWYQQKPGKAPKLLIYGASTLESGVPSRFSGSGSGTDFTLTISSLQPEDFATYYCQQTWGPPFTFGQGTKLEIK
B9: MAdCAM Antibody Table 1 Clone 10 (scFv)
scFv: QVQLVQSGAEVKKPGASVKVSCKASGYTLTTWYMYWVRQAPGQGLEWMGWINPNRGATNYAQKFQGRVTMTRDTSTSTVYMELSSLRSEDTAVYYCAKGDLWGAMDVWGQGTLVTVSSGGGGSGGGGSGGGGSGGGGSDIQMTQSPSSLSASVGDRVTITCRASDNIGSWLAWYQQKPGKAPKLLIYAASSLQSGVPSRFSGSGSGTDFTLTISSLQPEDFATYYCQQGYSTPPTFGQGTKVEIK
B10: MAdCAM Antibody Table 1 Clone 11 (scFv)
scFv: QVQLVQSGAEVKKPGASVKVSCKASGYTFTTYYMHWVRQAPGQGLEWMGGFDPEDGETIYAQKFQGRVTMTRDTSTSTVYMELSSLRSEDTAVYYCARHAVAGAVGAGYYYYGMDVWGQGTMVTVSSGGGGSGGGGSGGGGSGGGGSDIQMTQSPSSLSASVGDRVTITCRASESISNWLAWYQQKPGKAPKLLIYAASTLQSGVPSRFSGSGSGTDFTLTISSLQPEDFATYYCQQSYSVPFTFGPGTKVDIK
B11: MAdCAM Antibody Table 2 Clone 64 (antibody, human IgG1, V domains shown)
VH: EVQLLESGGGLVQPGGSLRLSCAASGFTFSNSDMNWVRQAPGKGLEWVAHIWNDGSQKYYADSVKGRFTISRDNSKNTLYLQMNSLRAEDTAVYYCARDRTDPGYSSAMDVWGQGTTVTVSS
VL: DIQMTQSPSSLSASVGDRVTITCRASQDIRNYLGWYQQKPGKAPKLLIYDASSLETGVPSRFSGSGSGTDFTLTISSLQPEDFATYYCQQATSLPLTFGGGTKVEIK
B12: MAdCAM Antibody Table 1 Clone 8 (scFv)
scFv: EVQLLESGGGLVQPGGSLRLSCAASGFMFGDYAMHWVRQAPGKGLEWVSAISGSGGSTYYADSVKGRFTISRDNSKNTLYLQMNSLRAEDTAVYYCAKDLVVAGIWYFDLWGRGTLVTVSSGGGGSGGGGSGGGGSGGGGSDIQMTQSPSSLSASVGDRVTITCRASQGISNNLNWYQQKPGKAPKLLIYDASSLESGVPSRFSGSGSGTDFTLTISSLQPEDFATYYCQQTHSFPSTFGQGTKLEIK
B13: MAdCAM Antibody Table 2 Clone 46 (antibody, human IgG1, V domains shown)
VH: EVQLLESGGGLVQPGGSLRLSCAASGFSFSSYTMNWVRQAPGKGLEWVSFITSSSRTIYYADSVKGRFTISRDNSKNTLYLQMNSLRAEDTAVYYCARDRRGDYGDSWYFDLWGRGTLVTVSS
VL: EIVMTQSPATLSVSPGERATLSCRASQSVRNYLAWYQQKPGQAPRLLIYGASTRATGIPARFSGSGSGTEFTLTISSLQSEDFAVYYCQQYGSSPLTFGGGTKVEIK
B14: MAdCAM Antibody Table 1 Clone 63 (scFv)
scFv: EVQLLESGGGLVKPGGSLRLSCAASGFTFDDYAMHWVRQAPGKGLEWVASITSSSAFIDYAASVKGRFTISRDDSKNTLYLQMNSLKTEDTAVYYCARERVDWNSYFDLWGRGTLVTVSSGGGGSGGGGSGGGGSGGGGSEIVMTQSPATLSVSPGERATLSCRASQGISNSYLAWYQQKPGQAPRLLIYGASTRATGIPARFSGSGSGTEFTLTISSLQSEDFAVYYCQQYYTYPPTFGPGTKVDIK
B15: MAdCAM Antibody Table 1 Clone 60 (scFv)
scFv: EVQLLESGGGLVQPGGSLRLSCAASGFTFDDYTMHWVRQAPGKGLEWVSDISGSGGSTYYADSVKGRFTISRDNSKNTLYLQMNSLRAEDTAVYYCAKDVVVAGTPLHFDYWGQGTLVTVSSGGGGSGGGGSGGGGSGGGGSDIQMTQSPSSLSASVGDRVTITCQASQDISNYLNWYQQKPGKAPKLLIYAASYLQSGVPSRFSGSGSGTDFTLTISSLQPEDFATYYCQQAHNYPITFGQGTRLEIK
B16: MAdCAM Antibody Table 1 Clone 59 (scFv)
scFv: EVQLLESGGGLVQPGGSLRLSCAASGFTFSDFWMHWVRQAPGKGLEWISYISGDSGYTNYADSVKGRFTISRDNSKNTLYLQMNSLRAEDTAVYYCARDRPYYYYMDVWGKGTTVTVSSGGGGSGGGGSGGGGSGGGGSDIQMTQSPSSLSASVGDRVTITCRASQSVSRSLAWYQQKPGKAPKLLIYAASSLQSGVPSRFSGSGSGTDFTLTISSLQPEDFATYYCQQYKSYPVTFGQGTKVEIK
B17: MAdCAM Antibody Table 1 Clone 64 (scFv)
scFv: EVQLLESGGGLVKPGGSLRLSCAASGFAFSSHWMHWVRQAPGKGLEWVAGTSGSGESRDYADFVKGRFTISRDDSKNTLYLQMNSLKTEDTAVYYCARETYYYYYMDVWGKGTTVTVSSGGGGSGGGGSGGGGSGGGGSDIQMTQSPSSLSASVGDRVTITCRASQGISNYLAWYQQKPGKAPKLLIYDAANLEGGVPSRFSGSGSGTDFTLTISSLQPEDFATYYCQQSDIFPPTFGQGTKVEIK
B18: MAdCAM Antibody Table 1 Clone 20 (scFv)
scFv: EVQLLESGGGLVQPGGSLRLSCAASGFTFDDYAMHWVRQAPGKGLEWVSYIDTSSSHLYYADSVKGRFTISRDNSKNTLYLQMNSLRAEDTAVYYCARDEAAAGYYGMDVWGQGTTVTVSSGGGGSGGGGSGGGGSGGGGSDIQMTQSPSSLSASVGDRVTITCQAGQDISNYLNWYQQKPGKAPKLLIYDASNLETGVPSRFSGSGSGTDFTLTISSLQPEDFATYYCQQTYSTPITFGQGTKLEIK
B19: MAdCAM Antibody Table 1 Clone 61 (scFv)
scFv: EVQLLESGGGLVQPGGSLRLSCAASEFTFSNAWMSWVRQAPGKGLEWVASISSTSAYIDYADSVKGRFTISRDNSKNTLYLQMNSLRAEDTAVYYCAREVVGATTFDYWGQGTLVTVSSGGGGSGGGGSGGGGSGGGGSDIQMTQSPSSLSASVGDRVTITCRASQSISTWLAWYQQKPGKAPKLLIYAASSLQSGVPSRFSGSGSGTDFTLTISSLQPEDFATYYCQQANAFPPTFGQGTRLEIK
B20: MAdCAM Antibody Table 1 Clone 65 (scFv)
scFv: QVQLVQSGAEVKKPGASVKVSCKASGYTFTRHWIHWVRQAPGQGLEWMGWINVKTGGAGYAQKFQGRVTMTRDTSTSTVYMELSSLRSEDTAVYYCARESSGWYGTDVWGQGTTVTVSSGGGGSGGGGSGGGGSGGGGSDIQMTQSPSSLSASVGDRATITCRASQSISNYLAWYQQKPGKAPKLLIYAASSLQSGVPSRFSGSGSGTDFTLTISSLQPEDFATYYCQQSNSFPLTFGGGTKVEIK
B21: MAdCAM Antibody Table 1 Clone 23 (scFv)
scFv: EVQLLESGGGLVQPGGSLRLSCAASGFTFSSYAMHWVRQAPGKGLEWVSGISGSGGSAYYADSVKGRFTISRDNSKNTLYLQMNSLRAEDTAVYYCATSQAPVDYYYYGMDVWGQGTTVTVSSGGGGSGGGGSGGGGSGGGGSDIQMTQSPSSLSASVGDRVTITCRASQSISSWLAWYQQKPGKAPKLLIYAASNLQRGVPSRFSGSGSGTDFTLTISSLQPEDFATYYCQQSYSIPITFGQGTKVEIK

These binders were tested against cyno MAdCAM protein (cyno) (assay: ELISA).

Row | binding | Binder
1 | binds | B1
2 | binds | B2
3 | binds | B3
4 | binds | B4
5 | binds | B5
6 | binds | B6
7 | binds | B7
8 | binds | B8
9 | binds | B9
10 | binds | B10
11 | binds | B11
12 | binds | B12
13 | binds | B13

Each binder was assayed against cyno MAdCAM protein (cyno) (assay: Octet).

Row | binding | Binder
14 | binds | B14
15 | binds | B15
16 | binds | B16
17 | binds | B17
18 | binds | B18
19 | binds | B19
20 | binds | B20
21 | binds | B21
